The values below come from patent publication US20120129720.

Amino acid sequences for entries named in this document (tags omitted). A change or cut given only in a name is not applied to a line headed by its entry.
UniProt P14174: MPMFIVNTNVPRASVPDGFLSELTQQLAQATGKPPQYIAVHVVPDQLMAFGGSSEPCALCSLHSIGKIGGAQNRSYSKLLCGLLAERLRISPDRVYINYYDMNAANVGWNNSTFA

Common to all, as to test: ELONA
One data set concerns the target H (His-GFP) (UniProt P42212). The note with it: 3' A20 tail for capture; lower signal than HTX and HT; protein in a lysate after overexpression; label: biotin-T20 hybridised to tail.
A further data set deals with HT (His-T7 leader-GFP) (UniProt P42212). As to conditions: 3' A20 tail for capture, protein in a lysate after overexpression.
The target of data set [1] is HTX (His-T7 leader-Xpress-GFP) (UniProt P42212). The note with it: 3' A20 tail for capture; HTX about equal to HT, greater than H; anti-GFP capture; protein in a lysate after overexpression; label: biotin-T20 hybridised to ….
For data set [2], the target named is MIF (His-tag removed by enterokinase) (UniProt P14174). The note with it: 3' A20 tail for capture; His-tag removed; anti-MIF capture; purified recombinant protein; protein details: tag cleaved from ATGen His-MIF with enterokinase; label: biotin-T20 hybridised to tail.
A further data set has as its target T (T7 leader-GFP) (UniProt P42212). As to conditions: 3' A20 tail for capture; no His-tag; protein in a lysate after overexpression; label: biotin-T20 hybridised to tail.
Data set [3] concerns the target TX (T7 leader-Xpress-GFP) (UniProt P42212). The note with it: 3' A20 tail for capture; no His-tag; protein in a lysate after overexpression; label: biotin-T20 hybridised to tail.

For some of these results: A negative result means that nothing was seen under these conditions. For some of these results: Where cells or extracts were used, other partners may take part.

Take “GGGACGCUCACGUACGCUCACGUCCGAUCGAUACUGGUAUAUUGGCGCCUUCGUGGAAUGUCAGUGCCUGGACGUGCAGU [shot47]”: the binding result with H (His-GFP) was “binds”; in the data set with HT (His-T7 leader-GFP) (label: biotin-T20 hybridised to tail), “binds”; in data set [1], “binds”; in data set [2], “no binding”; in the data set with T (T7 leader-GFP) it was “no binding”; in data set [3], “no binding”.
With “GGGUAUAUUGGCGCCUUCGUGGAAUGUCAGUGCCUGG [shot47sss]”, the binding result with HT (His-T7 leader-GFP) (anti-GFP capture, label: biotin-T20 hybridised to tail (ELISA), variant of shot47) is reported as “binds”.
